{"source": "PubChem BioAssay AID652272 (Drosophila RNAi Screening Center, 2013)", "purpose": "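Genome-wide knock-down search for components of Hedgehog signalling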 (primary screen)", "system": "Drosophila clone 8 (Cl8) cells", "reagent": "long dsRNA against Drosophila genes", "read-out": "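Firefly light from a Hedgehog-responsive ptc promoter reporter and Renilla reference light, both read on a plate reader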", "scale": "firefly Hh reporter signal: higher = more ptc reporter light; Renilla reference signal: higher = more Renilla control light", "rule for the call": "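Hit when the z-score averaged over two replicates is under -2 or over +3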", "meaning of the calls": "active = hit: reporter lowered or raised; inactive = not a hit", "note": "In all, the deposit lists about 21,000 reagents; below is an unselected part of those that have a named target and a result. In the full data, 503 (2.4%) got an active call. 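Raw plate light values, not normalised; calls rest on replicate z-scores that were not deposited; hits include reporter decreases as well as increases.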 Unmarked entries are inactive. The numbers tell different reagents against one gene apart. A plus sign joins genes that one reagent is predicted to hit. Not stated in the record: the amount of reagent, the time to read-out."}
{"gene": "fd3F + CR42499", "reagent": 1, "firefly Hh reporter signal, replicate 1": 60251, "firefly Hh reporter signal, replicate 2": 2.47e5, "Renilla reference signal, replicate 1": 1803, "Renilla reference signal, replicate 2": 8530}
{"gene": "fd3F + CR42499", "reagent": 2, "firefly Hh reporter signal, replicate 1": 69162, "firefly Hh reporter signal, replicate 2": 3.10e5, "Renilla reference signal, replicate 1": 1767, "Renilla reference signal, replicate 2": 10736}
{"gene": "tyn (trynity)", "reagent": 1, "firefly Hh reporter signal, replicate 1": 65849, "firefly Hh reporter signal, replicate 2": 2.60e5, "Renilla reference signal, replicate 1": 2327, "Renilla reference signal, replicate 2": 11664}
{"gene": "CG11370", "reagent": 1, "firefly Hh reporter signal, replicate 1": 65371, "firefly Hh reporter signal, replicate 2": 50997, "Renilla reference signal, replicate 1": 2880, "Renilla reference signal, replicate 2": 1940}
{"gene": "CG2975", "reagent": 1, "firefly Hh reporter signal, replicate 1": 2.02e5, "firefly Hh reporter signal, replicate 2": 1.37e5, "Renilla reference signal, replicate 1": 4453, "Renilla reference signal, replicate 2": 3607}
{"gene": "Orc5 (Origin recognition complex subunit 5)", "reagent": 1, "firefly Hh reporter signal, replicate 1": 97009, "firefly Hh reporter signal, replicate 2": 36825, "Renilla reference signal, replicate 1": 2761, "Renilla reference signal, replicate 2": 3639}
{"gene": "CG9902", "reagent": 1, "firefly Hh reporter signal, replicate 1": 84075, "firefly Hh reporter signal, replicate 2": 2.07e5, "Renilla reference signal, replicate 1": 3058, "Renilla reference signal, replicate 2": 8024}
{"gene": "Df31 (Decondensation factor 31)", "reagent": 1, "firefly Hh reporter signal, replicate 1": 1.29e5, "firefly Hh reporter signal, replicate 2": 7.13e5, "firefly Hh reporter signal, replicate 3": 1.24e5, "Renilla reference signal, replicate 1": 4234, "Renilla reference signal, replicate 2": 42694}
{"gene": "CG9853", "reagent": 1, "firefly Hh reporter signal, replicate 1": 1.36e5, "firefly Hh reporter signal, replicate 2": 7.27e5, "firefly Hh reporter signal, replicate 3": 95101, "Renilla reference signal, replicate 1": 5962, "Renilla reference signal, replicate 2": 40637}

2 entries from above, arranged by “Renilla reference signal, replicate 2”, highest first:
{"gene": "fd3F + CR42499", "reagent": 2, "firefly Hh reporter signal, replicate 1": 69162, "firefly Hh reporter signal, replicate 2": 3.10e5, "Renilla reference signal, replicate 1": 1767, "Renilla reference signal, replicate 2": 10736}
{"gene": "fd3F + CR42499", "reagent": 1, "firefly Hh reporter signal, replicate 1": 60251, "firefly Hh reporter signal, replicate 2": 2.47e5, "Renilla reference signal, replicate 1": 1803, "Renilla reference signal, replicate 2": 8530}

The results go on.
{"gene": "CG9459", "reagent": 1, "firefly Hh reporter signal, replicate 1": 1.00e5, "firefly Hh reporter signal, replicate 2": 1.88e5, "Renilla reference signal, replicate 1": 3492, "Renilla reference signal, replicate 2": 4841}
{"gene": "so (sine oculis)", "reagent": 1, "firefly Hh reporter signal, replicate 1": "2.19e5 (active)", "firefly Hh reporter signal, replicate 2": 2.14e5, "firefly Hh reporter signal, replicate 3": 1.36e5, "Renilla reference signal, replicate 1": 16758, "Renilla reference signal, replicate 2": 7057}
{"gene": "out (outsiders)", "reagent": 1, "firefly Hh reporter signal, replicate 1": 1.28e5, "firefly Hh reporter signal, replicate 2": 87810, "Renilla reference signal, replicate 1": 3181, "Renilla reference signal, replicate 2": 2073}
{"gene": "Or85d (Odorant receptor 85d)", "reagent": 1, "firefly Hh reporter signal, replicate 1": 68763, "firefly Hh reporter signal, replicate 2": 89195, "Renilla reference signal, replicate 1": 2576, "Renilla reference signal, replicate 2": 2347}
{"gene": "CG5254", "reagent": 1, "firefly Hh reporter signal, replicate 1": 66901, "firefly Hh reporter signal, replicate 2": 2.21e5, "Renilla reference signal, replicate 1": 2539, "Renilla reference signal, replicate 2": 7776}
{"gene": "nero", "reagent": 1, "firefly Hh reporter signal, replicate 1": 82001, "firefly Hh reporter signal, replicate 2": 85760, "Renilla reference signal, replicate 1": 1858, "Renilla reference signal, replicate 2": 2604}
{"gene": "Sirup (Starvation-upregulated protein)", "reagent": 1, "firefly Hh reporter signal, replicate 1": 1.38e5, "firefly Hh reporter signal, replicate 2": 88167, "Renilla reference signal, replicate 1": 3569, "Renilla reference signal, replicate 2": 6864}
{"gene": "CG13155", "reagent": 1, "firefly Hh reporter signal, replicate 1": 92836, "firefly Hh reporter signal, replicate 2": 87571, "Renilla reference signal, replicate 1": 2370, "Renilla reference signal, replicate 2": 6441}
{"gene": "Spn43Ab (Serpin 43Ab)", "reagent": 1, "firefly Hh reporter signal, replicate 1": 83501, "firefly Hh reporter signal, replicate 2": 45387, "Renilla reference signal, replicate 1": 1865, "Renilla reference signal, replicate 2": 3361}
{"gene": "Zasp52 (Z band alternatively spliced PDZ-motif protein 52)", "reagent": 1, "firefly Hh reporter signal, replicate 1": 71000, "firefly Hh reporter signal, replicate 2": 35817, "Renilla reference signal, replicate 1": 971, "Renilla reference signal, replicate 2": 1996}
{"gene": "Zasp52 (Z band alternatively spliced PDZ-motif protein 52)", "reagent": 2, "firefly Hh reporter signal, replicate 1": 86220, "firefly Hh reporter signal, replicate 2": 58726, "Renilla reference signal, replicate 1": 1788, "Renilla reference signal, replicate 2": 4141}
{"gene": "CG15653", "reagent": 1, "firefly Hh reporter signal, replicate 1": 1.30e5, "firefly Hh reporter signal, replicate 2": 72017, "Renilla reference signal, replicate 1": 3136, "Renilla reference signal, replicate 2": 5352}
